Results are given in words; binding and its absence hold for the method and conditions named. Sequences can lack the tags named with a protein.
Target: T1, His6-tagged Pol III subunit C128 (strain for Pol III Δ) (S. cerevisiae) (UniProt P22276)
T1 sequence: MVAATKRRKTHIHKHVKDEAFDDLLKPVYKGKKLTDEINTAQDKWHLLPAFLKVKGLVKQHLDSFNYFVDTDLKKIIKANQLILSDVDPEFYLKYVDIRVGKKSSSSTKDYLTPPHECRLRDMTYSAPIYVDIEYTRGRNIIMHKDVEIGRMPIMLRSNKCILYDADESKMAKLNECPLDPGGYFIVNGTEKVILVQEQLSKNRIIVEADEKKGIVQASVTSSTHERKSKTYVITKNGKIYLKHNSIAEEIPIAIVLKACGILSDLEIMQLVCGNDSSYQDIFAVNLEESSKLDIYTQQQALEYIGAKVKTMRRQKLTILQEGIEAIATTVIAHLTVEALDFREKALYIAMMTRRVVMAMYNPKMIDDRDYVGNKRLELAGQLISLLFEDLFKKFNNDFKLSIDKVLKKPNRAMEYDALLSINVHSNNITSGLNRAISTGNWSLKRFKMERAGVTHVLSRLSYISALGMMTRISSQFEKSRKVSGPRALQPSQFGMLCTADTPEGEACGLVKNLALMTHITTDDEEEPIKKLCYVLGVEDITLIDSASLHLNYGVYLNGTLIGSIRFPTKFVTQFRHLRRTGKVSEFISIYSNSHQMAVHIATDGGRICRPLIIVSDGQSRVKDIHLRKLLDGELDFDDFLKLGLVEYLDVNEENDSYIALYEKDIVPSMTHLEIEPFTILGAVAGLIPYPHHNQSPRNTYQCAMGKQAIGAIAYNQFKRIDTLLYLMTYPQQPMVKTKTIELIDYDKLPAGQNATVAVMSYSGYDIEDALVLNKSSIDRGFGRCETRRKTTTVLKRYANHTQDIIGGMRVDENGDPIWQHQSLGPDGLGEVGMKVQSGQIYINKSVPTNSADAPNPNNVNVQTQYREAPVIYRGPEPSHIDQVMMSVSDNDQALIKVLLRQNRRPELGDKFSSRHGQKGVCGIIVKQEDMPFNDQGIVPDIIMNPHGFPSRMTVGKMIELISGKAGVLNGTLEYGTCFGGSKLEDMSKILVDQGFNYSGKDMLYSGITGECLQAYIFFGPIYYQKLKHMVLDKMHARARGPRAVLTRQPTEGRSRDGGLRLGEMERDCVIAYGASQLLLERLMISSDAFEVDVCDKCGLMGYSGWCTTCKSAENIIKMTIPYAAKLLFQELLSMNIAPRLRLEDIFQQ
Assay: affinity purification of the endogenous complex

- binding: no binding
B1: S. pombe C11 (protein, UniProt O13896 1-109)
chain: MQFCPTCGNHLIVAVDEEGRNAFDCRTCPYHFPISTFLYSRHEFAQKEVDDVLGGEEAFESNQQTEVTCENTKCDNNRAYFFQLQIRSADEPMSTFYRCTKCKFQWREN

Source: publication doi:10.1101/2022.02.28.482286 (bioRxiv, 2022)
